Source: the supplement of paper PMC8256030
Values joined by “and” are separate entries in the source; they are usually repeats but may differ in a detail not shown here. Equal values may be shown once. This is one part of the list. Repeats in this data set agree poorly, so a single value says little.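 HEK293T cells were given each compound shortly before transfection with a reporter in which red mCherry is followed by the SARS-CoV-2 frameshift element and then GFP in the −1 frame, so GFP appears only after frameshifting.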

How the values were obtained:
[1] = system: SARS-CoV-2 -1 PRF reporter mCherry-FSE-GFP(-1); assay: mCherry (red) intensity as percent of control; higher = higher upstream reporter expression; conditions: 10 µM; 24 h; HEK293T
[2] = system: SARS-CoV-2 -1 PRF reporter mCherry-FSE-GFP(-1); assay: percent effect, decrease of GFP/mCherry ratio (-1 PRF reporter) relative to controls; higher = stronger frameshift inhibition; conditions: 10 µM; 24 h; HEK293T

Row | SMILES | mCherry [1] | percent effect [2]
1 | CC(=O)Nc1ccc(OC(C)=O)cc1 [diacetamate] | 111% | 2.13%
2 | CCN(CC)CCNC(=O)c1ccc(NS(C)(=O)=O)cc1 [sematilide] | 82.3% | -11.1%
3 | NS(=O)(=O)c1cc2c(cc1Cl)NC(CSCc1ccccc1)NS2(=O)=O (configuration not stated) [hydrobentizide] | 79.2% | 1.06%
4 | CO/N=C(\C(=O)N[C@@H]1C(=O)N2C(C(=O)O)=C(COC(N)=O)CS[C@H]12)c1ccco1 [Zinacef] | 99% | -2.28%
5 | Cc1cc(C(=O)NCCc2ccc(S(=O)(=O)NC(=O)NN3CCCCCC3)cc2)no1 [glisoxepide] | 67.9% | -1.44%
6 | O=C(O)CCc1nc2ccccc2[nH]1 [procodazole] | 105% | -0.538%
7 | CC(=O)Nc1c(I)c(NC(C)=O)c(I)c(C(=O)O)c1I | 135% | 0.552%
8 | CC(C)NCC(O)COc1ccccc1C1CC1 (configuration not stated) [procinolol] | 63.7% | -2.13%
9 | COc1ccc(NS(=O)(=O)c2ccc(N)cc2)nn1 [sulfamethoxypyridazine] | 104% | -2.79%
10 | O=C(CCCl)NCc1ccccc1 [beclamide] | 83.7% | -1.79%
11 | CC(C)(O)C(C)(O)c1ccc(Cl)cc1 (configuration not stated) [phenaglycodol] | 72.2% | -8.11%
12 | N#C[C@@H]1CCCN1C(=O)CNC12CC3CC(CC(O)(C3)C1)C2 [vildagliptin] | 88.1% | -4.71%
13 | CC(CC(=O)c1ccc(-c2ccccc2)cc1)C(=O)O (configuration not stated) [metbufen] | 95.8% | -3.52%
14 | CC[C@@H]1/C=C(\C)C[C@H](C)C[C@H](OC)[C@H]2O[C@@](O)(C(=O)C(=O)N3CCCC[C@H]3C(=O)O[C@H](/C(C)=C/[C@@H]3CC[C@H](Cl)[C@H](OC)C3)[C@H](C)[C@@H](O)CC1=O)[C@H](C)C[C@@H]2OC [Pimecrolimus] | 95.6% | 0.387%
15 | CCN1CCN(C(=O)N[C@@H](C(=O)N[C@@H]2C(=O)N3[C@@H]2SC(C)(C)[C@@H]3C(=O)O)c2ccccc2)C(=O)C1=O [Piperacillin] | 60.7% | -8.53%
16 | O=C(O[C@H]1CN2CCC1CC2)N1CCc2ccccc2[C@@H]1c1ccccc1 [Vesicare] | 117% | -1.33%
17 | NS(=O)(=O)c1ccc(NCS(=O)(=O)O)cc1 [mesulfamide] | 101% | -3.57%
18 | Clc1ccc(OCC2=NCCc3ccccc32)cc1 [famotine] | 64.2% | -6.67%
19 | c1ccc([C@H]2CN3CCSC3=N2)cc1 [Levamisole] | 61.3% | -0.317%
20 | CCC(=O)N[C@H]1CC[C@@H](C(=O)N(C)c2ccc(-c3nc4ccccc4o3)cc2)C1 | 47.4% | -9.78%
21 | C#C[C@]1(O)CC[C@H]2[C@@H]3CCC4=CCCC[C@@H]4[C@H]3CC[C@@]21C [lynestrenol] | 73.5% | -3.33%
22 | CN(C)CCn1nnnc1SCC1=C(C(=O)O)N2C(=O)[C@@H](NC(=O)Cc3csc(N)n3)[C@H]2SC1 [Pansporin] | 103% | -3.56%
23 | Nc1ncnc2c1ncn2[C@@H]1O[C@H](COP(=O)(O)O)[C@@H](O)[C@H]1O [adenosine phosphate] | 138% and 116% and 129% | 3.08% and -4.08% and -1.41%
24 | C[C@H](NC(=O)c1cnc2n1[C@](C)(Cc1ccc(C#N)cc1)C(=O)N2c1cc(Cl)c(F)c(Cl)c1)C(=O)NC1(c2ccccn2)CC1 | 43.4% | 1.21%
25 | NCCc1c[nH]cn1 [Histamine Phosphate] | 92.5% | -2.91%
26 | CCCCC(C)(O)C/C=C/[C@H]1[C@H](O)CC(=O)[C@@H]1CCCCCCC(=O)OC (mixture of isomers) [Misoprostol] | 58.4% | -6.57%

Row | SMILES | mCherry [1] | percent effect [2]
27 | N[C@@H](COP(=O)(O)O)C(=O)O [dexfosfoserine] | 85.2% | -0.0731%
28 | CC(=O)OCC1=C(C(=O)O)N2C(=O)[C@@H](NC(=O)[C@H](N)c3ccccc3)[C@H]2SC1 [cefaloglycin] | 102% | -2.84%
29 | CCN(CC)CCOC(=O)N(c1ccccc1)c1ccccc1 [dicarfen] | 96.5% | -0.492%
30 | CO[C@@]1(NC(=O)C2SC(=C(C(N)=O)C(=O)O)S2)C(=O)N2C(C(=O)O)=C(CSc3nnnn3C)CS[C@@H]21 (some centres not stated) [Cefotan] | 81.9% | -5.16%
31 | O=C(CCCCC(=O)Nc1c(I)cc(I)c(C(=O)O)c1I)Nc1c(I)cc(I)c(C(=O)O)c1I | 114% | 0.579%
32 | CNC(=O)c1cnn(-c2nc(N)c3ncn([C@@H]4O[C@H](CO)[C@@H](O)[C@H]4O)c3n2)c1 [regadenoson] | 106% | 0.293%
33 | Oc1c(I)cc(I)c2cccnc12 | 106% | -0.98%
34 | CN/C(=N\CCSCc1nc[nH]c1C)NC#N [Cimetidine] | 114% and 98.6% | -4.39% and 2.25%
35 | NC(=O)NC(=O)C(Oc1ccc(Cl)cc1)Oc1ccc(Cl)cc1 [urefibrate] | 64.9% | -12.4%
36 | COc1ccccc1N1CCN(CC(O)COc2cc(OC)c(OC)c(OC)c2)CC1 (configuration not stated) [enciprazine] | 62.2% | 4.17%
37 | CN/C(=N\CCSCc1nc[nH]c1C)NC#N | 108% | -4.44%
38 | NNCCc1ccccc1 | 114% | 0.778%
39 | CCOC(=O)[C@H](CCc1ccccc1)N[C@@H](C)C(=O)N1CC2(C[C@H]1C(=O)O)SCCS2 [spirapril] | 75.7% | -4.47%
40 | Cc1cccc(N(C)C(=S)Oc2ccc3ccccc3c2)c1 [tolnaftate] | 111% | -1.66%
41 | CC(C)(Oc1ccc(Cl)cc1)C(=O)OCCNC(=O)c1cccnc1 [picafibrate] | 91.6% | -3.53%
42 | CC(C)[C@H](N)C(=O)OCCOCn1cnc2c(=O)nc(N)[nH]c21 [valaciclovir] | 84.9% | -0.0831%
43 | O=C(CCCN1CC=C(n2c(=O)[nH]c3ccccc32)CC1)c1ccc(F)cc1 [droperidol] | 138% | -4.49%
44 | Cc1nccn1CC1CCc2c(c3ccccc3n2C)C1=O (configuration not stated) | 96.3% | -5.91%
45 | COC(=O)[C@H]1[C@H]2C[C@@H]3c4[nH]c5ccccc5c4CCN3C[C@H]2C[C@@H](OC(=O)c2cc(OC)c(OC)c(OC)c2)[C@@H]1OC [deserpidine] | 95.7% | -7.34%
46 | O=C(O)[C@H](CC(=O)N1C[C@H]2CCCC[C@H]2C1)Cc1ccccc1 [mitiglinide] | 114% | -3.3%
47 | CC(C)(O)c1ccccc1CC[C@@H](SCC1(CC(=O)O)CC1)c1cccc(/C=C/c2ccc3ccc(Cl)cc3n2)c1 | 131% | 0.512%
48 | C[N+](C)(C)CCCCCC[N+](C)(C)C [hexamethonium bromide] | 107% | -2.19%
49 | CC(C)(C)NCC(O)c1cc(O)cc(O)c1 (configuration not stated) [terbutaline] | 114% | -5.61%
50 | CC(C(=O)O)c1ccc2c(c1)Cc1ccccc1-2 (configuration not stated) [cicloprofen] | 109% | -8.19%
51 | CC1=C(/C=C/C(C)=C/C=C/C(C)=C/C=C/C=C(C)/C=C/C=C(C)/C=C/C2=C(C)CCCC2(C)C)C(C)(C)CCC1 | 67.4% | 0.347%
52 | O=c1[nH]cnc2c1ncn2[C@@H]1O[C@H](CO)[C@@H](O)[C@H]1O | 95.4% | 0.252%

Two entries from above, with each value named:
CC(C)(C)NCC(O)c1cc(O)cc(O)c1 (configuration not stated) [terbutaline]
  mCherry [1]: 114%
  percent effect [2]: -5.61%
CC(C(=O)O)c1ccc2c(c1)Cc1ccccc1-2 (configuration not stated) [cicloprofen]
  mCherry [1]: 109%
  percent effect [2]: -8.19%

(further entries)

Row | SMILES | mCherry [1] | percent effect [2]
53 | c1ccc2oc(-c3ccncc3)cc2c1 [pyridarone] | 95.3% | -0.57%
54 | CN1CCOC(c2ccccc2)c2ccccc2C1 (configuration not stated) [nefopam] | 177% | 5.46%
55 | CCCCOC(=O)c1ccc(N)cc1 | 123% | -8.96%
56 | CC1(C)S[C@@H]2[C@H](/N=C/N3CCCCCC3)C(=O)N2[C@H]1C(=O)O [mecillinam] | 92% | -4.46%
57 | Cc1c(OCC(F)(F)F)ccnc1C[S@@+]([O-])c1nc2ccccc2[nH]1 [dexlansoprazole] | 39.2% | -4.09%
58 | CC(=O)N[C@@H](CCC(N)=O)C(=O)O | 113% | 1.73%
59 | NCc1ccc(S(N)(=O)=O)cc1 [mafenide] | 127% | 2.97%
60 | O=C(/C=C/c1c(C(=O)O)[nH]c2cc(Cl)cc(Cl)c12)Nc1ccccc1 [gavestinel] | 102% | 1.06%
61 | Nc1ccc(S(=O)(=O)Nc2ccccn2)cc1 [sulfapyridine] | 126% | -6.46%
62 | C[C@H]1CN(C[C@H](Cc2ccccc2)C(=O)NCC(=O)O)CC[C@@]1(C)c1cccc(O)c1 [Entereg] | 114% | -6.43%
63 | Cc1ccccc1N1CCN(CCc2nnc3n2CCCC3)CC1 | 99.3% | -1.53%
64 | O=C([O-])[C@H](O)[C@@H](O)[C@H](O)[C@H](O)CO.[Na+] | 121% | 2.33%
65 | C=C1CC[C@H](O)C/C1=C/C=C1\CCC[C@]2(C)[C@@H]([C@H](C)/C=C/[C@H](C)C(C)C)CC[C@@H]12 [Ergocalciferol] | 116% | -0.143%
66 | CC(SC(=O)c1cccs1)C(=O)NCC(=O)O (configuration not stated) [stepronin] | 124% | -6.09%
67 | CN(C)C(=N)NC(=N)N | 54% | -2.12%
68 | CC1=C(C)C(=O)C(C(CCCCCC(=O)O)c2ccccc2)=C(C)C1=O (configuration not stated) [seratrodast] | 103% | -7.5%
69 | CC[C@H](C)C(=O)O[C@H]1C[C@H](O)C=C2C=C[C@H](C)[C@H](CC[C@@H](O)C[C@@H](O)CC(=O)O)[C@H]21 | 84.4% | -4.58%
70 | O=C(O)CCSCC(=O)O [danosteine] | 74.7% | -5.96%
71 | CCCN[C@H]1CCc2nc(N)sc2C1 [pramipexole] | 90.2% | -3.92%
72 | CCCCCCCCOc1ccc(C(=O)c2ccccc2)c(O)c1 [octabenzone] | 91.1% | 8.91%
73 | Cc1nccn1CC1CCc2c(c3ccccc3n2C)C1=O (configuration not stated) [ondansetron] | 72.5% | -3.21%
74 | CCN1CCCC(OC(=O)C(c2ccccc2)c2ccccc2)C1 (configuration not stated) [piperidolate] | 109% | -2.08%
75 | CCc1cc(Cl)c(OC)c(C(=O)NC[C@@H]2CCCN2CC)c1O [eticlopride] | 78.8% | -7.92%
76 | Cc1nc2c(C)cccn2c(=O)c1CCN1CCC(c2noc3cc(F)ccc23)CC1 [ocaperidone] | 97.2% | -9.52%

Complete entries from above.
C=C1CC[C@H](O)C/C1=C/C=C1\CCC[C@]2(C)[C@@H]([C@H](C)/C=C/[C@H](C)C(C)C)CC[C@@H]12 [Ergocalciferol] as listed: mCherry [1]: 116%; percent effect [2]: -0.143%
Cc1c(OCC(F)(F)F)ccnc1C[S@@+]([O-])c1nc2ccccc2[nH]1 [dexlansoprazole] as listed: mCherry [1]: 39.2%; percent effect [2]: -4.09%
